Measured values published in paper PMC7689938, “Abscisic acid promotes jasmonic acid biosynthesis via a ‘SAPK10‐bZIP72‐AOC’ pathway to synergistically inhibit seed germination in rice (Oryza sativa)” (The New Phytologist, 2020).
Changes are numbered by the printed parent chain. These are yes or no findings as the source states them, for the method shown. Some entries that bind do so weakly or less than the wild type. Tags and fused reporters may be left off the sequences shown.

B1: His-SAPK10 (enzyme, UniProt Q75H77 1-362, looked up)
chain: MDRAALTVGPGMDMPIMHDGDRYELVRDIGSGNFGVARLMRSRADGQLVAVKYIERGDKIDENVQREIINHRSLRHPNIIRFKEVILTPTHLAIVMEYASGGELFERICNAGRFSEDEARFFFQQLISGVSYCHSMQVCHRDLKLENTLLDGSTAPRLKICDFGYSKSSVLHSQPKSTVGTPAYIAPEVLLKKEYDGKIADVWSCGVTLYVMLVGAYPFEDPDEPKNFRKTIQRILGVQYSIPDYVHISPECRDLIARIFVANPATRISIPEIRNHPWFLKNLPADLMDDSKMSSQYEEPEQPMQSMDEIMQILAEATIPAAGSGGINQFLNDGLDLDDDMEDLDSDPDLDVESSGEIVYAM
notes: SAPK10 (SnRK2 type kinase), rice; full-length CDS in pET28a; source: Transetta (DE3) cells, purified (6 x His-Tagged Protein Purification Kit)
B2: His-SAPK10^S177A (enzyme, UniProt Q75H77 1-362, looked up)
chain: B1 chain with S177A
notes: SAPK10, rice, Ser177 replaced by alanine; full-length CDS in pET28a; source: Transetta (DE3) cells, purified (6 x His-Tagged Protein Purification Kit)

Target: T1, SAPK10 fused to the GAL4-binding domain (rice (Oryza sativa L. ssp. japonica cv Nipponbare)) (UniProt Q75H77)
T1 sequence: B1 chain
Test: two-hybrid; Matchmaker GAL4 two-hybrid system, constructs cotransformed into yeast strain Y2H Gold, selected on medium lacking Leu, Trp and His with 0.04 mg/ml X-alpha-Gal and 100 ng/ml Aureobasidin A

Row | Binder | binding
1 | B1 | binds
2 | B2 | binds
